# PubChem BioAssay AID504793 – Drosophila RNAi Screening Center, 2011
# Test: 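Knock-downs allowing continued mitosis even though DNA is damaged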 (primary screen)
# Cells: Drosophila S2R+ cells
# Reagents: long dsRNA against Drosophila genes, about 0.25 µg dsRNA per well
# Time to read-out: 4 days of dsRNA, then 4 hours of drug before read-out
# Conditions: doxorubicin 0.5 µM for 4 hours to cause double-strand breaks, in cells also given a low, harmless dose of dsRNA against nbs to sensitise the assay
# Measured: 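Per-well count of mitotic cells stained for phospho-histone H3 after doxorubicin exposure, used as mitotic index; counts are raw and not normalised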
# Direction: mitotic cells: higher = more cells in mitosis, weaker G2 arrest
# Hit rule: 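a call needs confirmation in secondary tests, with other dsRNAs and a check of mitotic timing without damage, not just a high primary count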
# Meaning of the calls: active = confirmed in follow-up tests; inactive = not confirmed
# The screen tested about 23,000 reagents; shown is an unselected part of those with a known target gene and a result. In the full data, 62 (0.27%) are marked active. 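Calls come from follow-up tests whose scores are not deposited, so confirmed genes may have low counts here; counts are not normalised per plate.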 Raw values are not corrected between plates. The numbers tell different reagents against one gene apart. A plus sign joins genes that one reagent is predicted to hit.
gene,reagent,"mitotic cells, replicate 1",Outcome
Pdxk (Pyridoxal kinase),1,8,inactive
frtz (fritz),1,7,inactive
Ndae1 (Na[+]-driven anion exchanger 1),1,10,inactive
Ndae1 (Na[+]-driven anion exchanger 1),2,15,inactive
Unc-115b + p24-2 + Unc-115a,1,9,inactive
Uhg1 (U snoRNA host gene 1),1,,inactive
Cht9 (Chitinase 9),1,4,inactive
Cht9 (Chitinase 9),2,11,inactive
CG4318,1,10,inactive
sta (stubarista),1,6,inactive
sta (stubarista),2,4,inactive
CG1421,1,7,inactive
PyK (Pyruvate kinase),1,10,inactive
PyK (Pyruvate kinase),2,7,inactive
beag,1,,inactive
alka (alkaliphile),1,5,inactive
CG13955,1,3,inactive
CG18764,1,4,inactive
Mco4 (Multicopper oxidase 4),1,11,inactive
Mco4 (Multicopper oxidase 4),2,8,inactive
Patj,1,2,inactive
Patj,2,5,inactive
mab-21,1,11,inactive
mab-21,2,3,inactive
CG12935,1,6,inactive
CG15803,1,7,inactive
Orc6 (Origin recognition complex subunit 6),1,8,inactive
CG14864,1,5,inactive
CG13895,1,15,inactive
CG6602,1,2,inactive
CG11537,1,6,inactive

Taken from above.
For “mitotic cells, replicate 1”, CG18764 reads 4
Result of CG13895 under “Outcome”: inactive
For “Outcome”, mab-21 #1 shows inactive
Ndae1 (Na[+]-driven anion exchanger 1) #1, Outcome = inactive
Value of Pdxk (Pyridoxal kinase) in “Outcome”: inactive
Mco4 (Multicopper oxidase 4) #2, Outcome: inactive

The list goes on.
gene,reagent,"mitotic cells, replicate 1",Outcome
Hrb98DE (Heterogeneous nuclear ribonucleoprotein at 98DE),1,6,inactive
Hrb98DE (Heterogeneous nuclear ribonucleoprotein at 98DE),2,14,inactive
CG14020,1,1,inactive
CG9920,1,6,inactive
CG32971,1,6,inactive
Glt (Glutactin),1,5,inactive
Glt (Glutactin),2,9,inactive
GlcT (Glucosylceramide synthase),1,8,inactive
GlcT (Glucosylceramide synthase),2,4,inactive
CG4021,1,8,inactive
CG4021,2,9,inactive
CG17202,1,12,inactive
CG14245,1,15,inactive
Pstk + Tim9b,1,8,inactive
Pstk + Tim9b,2,5,inactive
Pstk + Tim9b,3,4,inactive
CG4645,1,6,inactive
CG4645,2,8,inactive
CG4630,1,11,inactive
CG4630,2,5,inactive
mnb (minibrain),1,20,inactive
mnb (minibrain),2,12,inactive
mnb (minibrain),3,8,inactive
mnb (minibrain),4,16,inactive
LanB2 (Laminin B2),1,6,inactive
CG4658,1,4,inactive
CG31087,1,8,inactive
CG15412,1,6,inactive
CG8195,1,7,inactive
Tre1 (Trapped in endoderm 1),1,6,inactive
Tre1 (Trapped in endoderm 1),2,5,inactive
CG31886,1,6,inactive
CG31886,2,6,inactive
CG4017,1,3,inactive
scpr-A + scpr-C,1,5,inactive
dyl (dusky-like),1,5,inactive
dyl (dusky-like),2,3,inactive
dyl (dusky-like),3,2,inactive
Tep1 (Thioester-containing protein 1),1,6,inactive
Tep1 (Thioester-containing protein 1),2,6,inactive
CG15653,1,3,inactive
Cpr65Az (Cuticular protein 65Az),1,4,inactive
Cpr65Az (Cuticular protein 65Az),2,13,inactive
Cpr65Az (Cuticular protein 65Az),3,8,inactive
